Assay results published in PubChem BioAssay AID1259415 (National Center for Advancing Translational Sciences (NCATS), 2018).
Where “and” joins values, the source holds several entries; their conditions need not be identical. Identical values can stand only once. About 18,000 (4.4%) of roughly 410,000 compounds were called active. This list was built around the results that the source calls inconclusive (neither active nor inactive); the mix of calls is not that of the screen. Cut-off read from the data, not from the text of the source: active = activity change below about -60%; inconclusive = no clear call, values can overlap the other calls; inactive = above about -39%.
% is set by controls: 0 for no effect and ±100 for the full control effect.

Assay: qHTS Assay for inhibitors of the human cytomegalovirus (HCMV)
Conditions: HFF cells, HCMV-luciferase reporter, 72 h; at 57.5 µM; active compounds read low
Summary of the method: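 HFF cells seeded 16 h at 37C, treated with compounds, infected with luciferase-reporter HCMV at MOI 1 PFU/cell; luciferase read at 72 h post infection, normalized to buffer-only and Salinomycin controls.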
In the case of `Cc1cnc(NC(=O)Nc2ccccc2)c(C)n1`, the activity change, negative = inhibition is reported as inconclusive: -58%.
In the case of `O=S1(=O)N[C@@H](Cc2ccccc2)COc2cc(N3CCC[C@H]3CO)ccc21`, the activity change, negative = inhibition is reported as inconclusive: -44.8%.
In the case of `N#Cc1ncc(-c2ccc3c(c2)OCCOCCOCCOCCO3)nc1C#N`, the activity change, negative = inhibition is reported as active: -72.7%.
With `Cc1ccc(/C=N/NC(=O)CNC(=O)c2ccc(S(=O)(=O)N3CCCC3)cc2)o1` the activity change, negative = inhibition was inconclusive: -42%.
With `CC1=C(C(=O)NC2CCCc3c2cnn3-c2ccc(F)cc2F)OCCO1` (stereo not drawn) the activity change, negative = inhibition was inconclusive: -53.3%.
In the case of `COc1ccc(C2/C(=C(/O)c3ccccc3)C(=O)C(=O)N2CCCN2CCOCC2)cc1` (stereo not drawn), the activity change, negative = inhibition is reported as inactive: 75.3%.
With `Cc1ccc(Nc2nc(NCc3cccs3)nc3ccsc23)c(C)c1` the activity change, negative = inhibition was inconclusive: -56.7%.
In the case of `O=C(CCN1C(=O)/C(=C/c2ccc3c(c2)OCO3)SC1=S)NNC(=O)c1cccnc1`, the activity change, negative = inhibition is reported as inconclusive: -47.5%.
In the case of `O=C(OCC(=O)N(CCc1ccccc1)Cc1ccccc1)c1ccc(F)c(S(=O)(=O)N2CCOCC2)c1`, the activity change, negative = inhibition is reported as inconclusive: -49.8%.
With `CCN(CC)S(=O)(=O)c1cc(NC(=O)Cc2ccsc2)ccc1C` the activity change, negative = inhibition was inactive: -27.7%.
With `N#CC(c1ccccc1)c1ccc2c(C(F)(F)F)cc(C(F)(F)F)nc2n1` (stereo not drawn) the activity change, negative = inhibition was active: -104%.
For `CCCCc1c(-c2ccccc2OC)ncn1Cc1cccc(-c2ccccc2)c1`, the activity change, negative = inhibition was inconclusive: -59.7%.
In the case of `O=C1c2c(-c3ccc(Br)cc3)noc2CCN1Cc1cn(C2CCCC2)nn1`, the activity change, negative = inhibition is reported as inconclusive: -56.1%.
For `COc1ccccc1NS(=O)(=O)c1cccc(-n2c(O)c(C=Nc3ccccc3C(=O)O)c3ccccc3c2=O)c1`, the activity change, negative = inhibition was inconclusive: -44.2%.
In the case of `N=c1oc2ccc(Br)cc2cc1C(=O)NC1CCCCCC1`, the activity change, negative = inhibition is reported as inconclusive: -48.4%.
In the case of `COC(=O)C(=Cc1ccccc1[N+](=O)[O-])C(=O)OC`, the activity change, negative = inhibition is reported as active: -95.9%.
In the case of `COc1ccc(C(c2nnnn2-c2ccc(OC)cc2)N2CCC(n3c(=O)[nH]c4ccccc43)CC2)cc1` (stereo not drawn), the activity change, negative = inhibition is reported as active: -60.7%.
For `COc1ccc(-c2[nH]ncc2CN2CCCC2c2nonc2C)c(F)c1` (stereo not drawn), the activity change, negative = inhibition was inconclusive: -50.4%.
In the case of `CCOC(=O)c1c(NC(C)=O)sc2c(OC)c(Br)ccc12`, the activity change, negative = inhibition is reported as inactive: -24.4%.
With `Cc1c(NC(=O)c2cc3c(s2)CCCC3)c(=O)n(-c2ccccc2)n1C` the activity change, negative = inhibition was inconclusive: -50%.
For `CC1CCN(C(=O)Cn2cc(SCC(=O)NCC3CCCO3)c3ccccc32)CC1` (stereo not drawn), the activity change, negative = inhibition was inconclusive: -51.1%.
For `S=c1[nH]nc(-c2ccncc2)n1/N=C/c1cccc(Cl)c1`, the activity change, negative = inhibition was inconclusive: -40.3%.
In the case of `COc1ccc2cc3[n+](cc2c1OC)CCc1cc2c(cc1-3)OCO2`, the activity change, negative = inhibition is reported as active: -95% and active: -95.6%.
For `COc1cc(N2CCCC2)c(OC)cc1/C=C(/C#N)c1ccc(F)cc1`, the activity change, negative = inhibition was inconclusive: -42.2%.
In the case of `O=C(Nc1ccc(Cl)c(S(=O)(=O)N2CCCCC2)c1)c1ccncc1`, the activity change, negative = inhibition is reported as active: -77.3%.
With `CC(=O)c1c(C)[nH]c(C(=O)CN2CCN(S(=O)(=O)c3ccccc3F)CC2)c1C` the activity change, negative = inhibition was inconclusive: -57.9%.
With `COc1ccc(OC)c(-c2nc(C)sc2CC(=O)O)c1` the activity change, negative = inhibition was inconclusive: -55%.
In the case of `CCS(=O)(=O)N1CCN(c2ccc(C(=O)N3CCOCC3)cc2[N+](=O)[O-])CC1`, the activity change, negative = inhibition is reported as inconclusive: -45.9%.
For `CCN1CCCC1CN(Cc1cc2c(C)cc(C)cc2[nH]c1=O)C(=O)NC1CCCCC1` (stereo not drawn), the activity change, negative = inhibition was inactive: -18.4%.
In the case of `Cc1ccc(NC(=O)CSc2nc3ccccc3c(=O)n2CCCN2CCCCC2)cc1Cl`, the activity change, negative = inhibition is reported as active: -96.7%.
For `COc1ccccc1NC(=O)Cn1nc(-c2ccc(Cl)cc2)c2ccccc2c1=O`, the activity change, negative = inhibition was inconclusive: -42.7%.
For `CCc1cccc(Nc2cnn(C34C[C@@H]5C[C@@H](CC(CC(=O)O)(C5)C3)C4)c(=O)c2Cl)c1`, the activity change, negative = inhibition was inactive: -4.96%.
With `CC(C)(C)N1C(=O)c2ccc(C(=O)Nc3ccc(O)cc3)cc2C1=O` the activity change, negative = inhibition was inconclusive: -42.9%.
For `COc1cccc(-c2csc(N3CCN(CC(=O)NNC(=O)c4ccc(Cl)cc4)CC3)n2)c1`, the activity change, negative = inhibition was inconclusive: -42.9%.
For `Cc1nc2nc(SCC(=O)NCCCN3CCOCC3)nn2c(C)c1Cc1ccccc1`, the activity change, negative = inhibition was inconclusive: -45.2%.
In the case of `Cc1cc(C)n2nc(SCC(=O)Nc3ccccc3F)nc2n1`, the activity change, negative = inhibition is reported as inconclusive: -40.2%.
In the case of `O=C(C[n+]1cc(Br)cc2ccccc21)c1ccc(Cl)cc1`, the activity change, negative = inhibition is reported as inactive: 31.6%.
For `C=CCn1c(C)cc(C(=O)CN2NS(=O)(=O)c3ccccc3C2=O)c1C`, the activity change, negative = inhibition was active: -73.8%.
For `O=C(Nc1ccccc1N1CCOCC1)c1ccc([N+](=O)[O-])cc1`, the activity change, negative = inhibition was active: -101%.
For `c1ccc2c(c1)N1CCCN=C1N2CCN1CCCCC1`, the activity change, negative = inhibition was inconclusive: -44.9%.
With `Cc1ccc(-c2ccc(CN3C(C(C)C)C(=O)N(Cc4cn(CCC5OCCO5)nn4)CCS3(=O)=O)cc2)c(C)c1` (stereo not drawn) the activity change, negative = inhibition was inactive: -19.3%.
For `Cc1ccc(-c2c[n+](CC(=O)Nc3ccccc3C)c3n2CCC3)cc1`, the activity change, negative = inhibition was inactive: 55.3%.
For `C[C@@H]1CN(C(=O)c2nc3ccc(Cl)cn3c2CN2CCc3sccc3C2)C[C@H](C)O1`, the activity change, negative = inhibition was inconclusive: -41.9%.
